How the values were obtained:
[1] = in vitro; conditions: PAMPA, pH 7.4
[2] = PAMPA

Which Papp [1] does the source give for `COc1cc2c(cc1OC)C(=O)C(CC1CCN(Cc3ccccc3)CC1)C2` (centres unmarked) [donepezil, reference compound] here?
The Papp was 23.2 ± 2.3 ×10⁻⁶ cm/s.

What about the CNS prediction [2] of the same molecule?
Its CNS prediction is “CNS+”.
